Laboratory results: patent US20050255537A1, “Method for monitoring treatment with a parathyroid hormone” (priority 1999, published 2005)

Assay: Example 5 study GHAJ: height
Assay type: in vivo, human

CC[C@H](C)[C@H](NC(=O)[C@H](CCC(=O)O)NC(=O)[C@H](CO)NC(=O)[C@@H](NC(=O)[C@@H](N)CO)C(C)C)C(=O)N[C@@H](CCC(N)=O)C(=O)N[C@@H](CC(C)C)C(=O)N[C@@H](CCSC)C(=O)N[C@@H](Cc1cnc[nH]1)C(=O)N[C@@H](CC(N)=O)C(=O)N[C@@H](CC(C)C)C(=O)NCC(=O)N[C@@H](CCCCN)C(=O)N[C@@H](Cc1cnc[nH]1)C(=O)N[C@@H](CC(C)C)C(=O)N[C@@H](CC(N)=O)C(=O)N[C@@H](CO)C(=O)N[C@@H](CCSC)C(=O)N[C@@H](CCC(=O)O)C(=O)N[C@@H](CCCN=C(N)N)C(=O)N[C@H](C(=O)N[C@@H](CCC(=O)O)C(=O)N[C@@H](Cc1c[nH]c2ccccc12)C(=O)N[C@@H](CC(C)C)C(=O)N[C@@H](CCCN=C(N)N)C(=O)N[C@@H](CCCCN)C(=O)N[C@@H](CCCCN)C(=O)N[C@@H](CC(C)C)C(=O)N[C@@H](CCC(N)=O)C(=O)N[C@@H](CC(=O)O)C(=O)N[C@H](C(=O)N[C@@H](Cc1cnc[nH]1)C(=O)N[C@@H](CC(N)=O)C(=O)N[C@@H](Cc1ccccc1)C(=O)O)C(C)C)C(C)C [LY333334]
mean height decrease at endpoint (20-μg group): 2.20 mm
mean height decrease at endpoint (40-μg group): 3.25 mm
